{"source": "the supplement of paper PMC12889115", "tested_on": "Salmonella enterica serovar Typhimurium SL1344", "experiment": "bacterial growth OD600 after 18 h with compound and polymyxin B; higher = more bacterial growth (less inhibition)", "settings": "50 µM, Mueller-Hinton broth", "note": "Some of the results follow. These are raw signals, not scaled to a control.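 In the initial screen, polymyxin B was used at a concentration that permeabilizes Salmonella's outer membrane but not its inner membrane. Maximum growth was set by DMSO wells with or without polymyxin B. Since plates varied, data were ranked per plate, and compounds giving the lowest OD600 advanced as hits.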", "data": [{"compound": "COc1cccc2c1OCCCN(C(=O)C1CCN(c3nc(C)c4ccccc4n3)CC1)C2", "values": [{"measurement": "bacterial growth OD600", "setting": "polymyxin B 0.75 µg/mL", "result": 0.823}]}, {"compound": "CCN(CC)C1CCN(C(=O)c2cn(C3CCCCC3)cc(C(=O)NC(C)(C)C)c2=O)C1", "note": "(centres undefined)", "values": [{"measurement": "bacterial growth OD600", "setting": "polymyxin B 0.75 µg/mL", "result": 0.962}]}, {"compound": "CC(C(=O)N1CCC(N2CCC(C(=O)N3CCCC3)CC2)CC1)n1cnc2ccccc21", "note": "(centres undefined)", "values": [{"measurement": "bacterial growth OD600", "setting": "polymyxin B 1 µg/mL", "result": 1.13}]}, {"compound": "COc1ccccc1C1(CC(=O)N2CCCC(c3ccccc3C)C2)CC(=O)N(C)C1=O", "note": "(centres undefined)", "values": [{"measurement": "bacterial growth OD600", "setting": "polymyxin B 0.75 µg/mL", "result": 0.054}]}, {"compound": "CCOC(=O)N1CCN(C2CCCN(Cc3cccn3-c3ncccn3)C2)CC1", "note": "(centres undefined)", "values": [{"measurement": "bacterial growth OD600", "setting": "polymyxin B 1 µg/mL", "result": 0.856}]}, {"compound": "OCCC1CCN(c2nncc(-c3cccc(F)c3)n2)CC1", "values": [{"measurement": "bacterial growth OD600", "setting": "polymyxin B 1 µg/mL", "result": 1.04}]}, {"compound": "O=C(CN1C(=O)CSC1=O)N1CCOc2ccc(CN3CCN(c4ccc(F)cc4)CC3)cc2C1", "values": [{"measurement": "bacterial growth OD600", "setting": "polymyxin B 0.75 µg/mL", "result": 0.809}]}, {"compound": "COCCN1C(=O)CC(CC(=O)N2CCCC(C(=O)Cc3ccccc3)C2)(c2ccccc2F)C1=O", "note": "(centres undefined)", "values": [{"measurement": "bacterial growth OD600", "setting": "polymyxin B 0.75 µg/mL", "result": 0.805}]}, {"compound": "Cc1cccc(CCNC(=O)Cn2nnnc2CN2C[C@@H](C)O[C@@H](C)C2)n1", "values": [{"measurement": "bacterial growth OD600", "setting": "polymyxin B 0.75 µg/mL", "result": 0.978}]}, {"compound": "Cc1cnc(SCc2ccccn2)nc1C1CCCN(CCCc2ccccc2)C1", "note": "(centres undefined)", "values": [{"measurement": "bacterial growth OD600", "setting": "polymyxin B 0.75 µg/mL", "result": 0.993}]}, {"compound": "COc1ccccc1CNc1ncnc2sc(C(=O)N3CCCC3)c(C)c12", "values": [{"measurement": "bacterial growth OD600", "setting": "polymyxin B 0.75 µg/mL", "result": 0.799}]}, {"compound": "Cc1cccc(C2c3[nH]c4ccccc4c3CCN2C(=O)c2ocnc2C)n1", "note": "(centres undefined)", "values": [{"measurement": "bacterial growth OD600", "setting": "polymyxin B 1 µg/mL", "result": 0.719}]}, {"compound": "CC(C)C(=O)N1CCCC1C(=O)Nc1ccc(-c2nc3ccccc3o2)cc1", "note": "(centres undefined)", "values": [{"measurement": "bacterial growth OD600", "setting": "polymyxin B 0.75 µg/mL", "result": 0.963}]}, {"compound": "COc1ccc(CC2(CCC(=O)NCCc3nc(-c4ccccc4)cs3)CCC(=O)N2)c(F)c1", "note": "(centres undefined)", "values": [{"measurement": "bacterial growth OD600", "setting": "polymyxin B 0.75 µg/mL", "result": 0.758}]}, {"compound": "CCn1ncc(CN2CCc3[nH]nc(-c4cccc(F)c4)c3C2)c1C", "values": [{"measurement": "bacterial growth OD600", "setting": "polymyxin B 0.75 µg/mL", "result": 0.811}]}, {"compound": "Cc1c(C(=O)NC2CC2)sc2ncnc(N3CCCCCCC3)c12", "values": [{"measurement": "bacterial growth OD600", "setting": "polymyxin B 0.75 µg/mL", "result": 0.032}]}, {"compound": "CCO[C@H]1[C@H](NC(=O)c2cccnc2)c2ccccc2C12CCN(C(=O)CC1=CCCCC1)CC2", "values": [{"measurement": "bacterial growth OD600", "setting": "polymyxin B 0.75 µg/mL", "result": 0.598}]}, {"compound": "CC(=O)N1CCC(N2CCCC(CCc3cccc(F)c3)C2)CC1", "note": "(centres undefined)", "values": [{"measurement": "bacterial growth OD600", "setting": "polymyxin B 0.75 µg/mL", "result": 0.835}]}, {"compound": "COC(C(=O)Nc1ccnn1C1CCN(C(=O)c2sccc2C)CC1)c1ccccc1", "note": "(centres undefined)", "values": [{"measurement": "bacterial growth OD600", "setting": "polymyxin B 1 µg/mL", "result": 0.89}]}]}
